We go through 48 molecules from PMC12040169 (PLOS Biology, 2025).

The list shows a part of the results.

The experiment deals with T1, CTL2-GFP (C. trachomatis L2/434/Bu, GFP-expressing).
T1 construct: L2/434/Bu, GFP-expressing
Also on record: species or system HeLa; Intracellular C. trachomatis growth in HeLa cells, bulk GFP fluorescence relative to DMSO. The following applies: bulk GFP, single well; 28.5 h, 10 µM; inhibitor.
In the case of `CCn1cc(C(=O)O)c(=O)c2cc(F)c(N3CCN(C(=S)Nc4cccc5ccccc45)CC3)cc21` [CBK265809], the “% of control remaining” value was determined as 100%.

As for `COc1cc(C(=O)Nc2ccc(-c3nc4ncccc4o3)cc2)ccc1OCc1ccc(Cl)cc1` [CBK033914], the “% of control remaining” value is recorded as 105.36%.

On to `COC(=O)COc1nccnc1-c1ccc(OC(F)(F)F)cc1` [CBK106849], for which the “% of control remaining” value amounted to 147.186%.

As for `O=C(CCC1CCCC1)N1C[C@@H]2CCCCN(CC3CC3)[C@@H]2C1` [CBK285531], the “% of control remaining” value was determined as 102.985%.

Turning to `CCOc1cc(/C=N/O)ccc1OC(=O)c1cccc([N+](=O)[O-])c1` [CBK090036], the “% of control remaining” value stood at 96.4198%.

`O=C(Nc1ccc2n(c1=O)C[C@H]1C[C@@H]2CN(C(=O)Cc2cccs2)C1)c1ccco1` [CBK289204]: the “% of control remaining” value is listed as 105.826%.

For the molecule `CCn1cncc1CN1CCCC(O)(c2ccc(F)cc2)CC1` (stereo not drawn) [CBK284838], the “% of control remaining” value worked out at 134.514%.

Turning to `CCOC(=O)Cn1nc(CC)n2c(cc3ccsc32)c1=O` [CBK284133], the “% of control remaining” value amounted to 108.802%.

Consider `O=C(c1nn2c(c1Br)NC(c1cccs1)CC2C(F)(F)F)N1CCCC1` (stereo not drawn) [CBK307180], for which the “% of control remaining” value is 150.9%.

As for `NC(=O)[C@@H]1C[C@@H](O)[C@H](O)[C@H]2[C@@H]1N(c1ccccc1)C(=S)N2Cc1ccc(F)cc1` [CBK288928], the “% of control remaining” value was determined as 126.219%.

As to `CCCC/C=C/c1ccc(N2CCN(CCN(C)C)CC2)nc1` [CBK036980], the “% of control remaining” value amounted to 215.644%.

Consider `O=C1C(c2ccccc2)=C(c2ccccc2)C(c2ccc(C3=C(c4ccccc4)C(=O)C(c4ccccc4)=C3c3ccccc3)cc2)=C1c1ccccc1` [CBK261220], for which the “% of control remaining” value worked out at 115.253%.

Regarding `O=C(O)c1ccc(CNC(=O)c2cnc(-c3ccc(F)cc3)c(-c3ccc(O)cc3)c2)cc1` [CBK037996], the “% of control remaining” value amounted to 172.185%.

Regarding `COC(=O)[C@H](CC1CCCCC1)NS(=O)(=O)c1ccc(C(C)C)cc1` [CBK044551], the “% of control remaining” value was 105.807%.

For the molecule `Cc1cc(OC(F)(F)F)ccc1S(=O)(=O)Nc1nc(CC(=O)O)cs1` [CBK000575], the “% of control remaining” value was found to be 106.402%.

With `O=[N+]([O-])c1ccccc1S(=O)(=O)N1CCN(c2ccccc2)CC1` [CBK261755], the “% of control remaining” value was found to be 112.805%.

For the molecule `c1ccc(OCCOc2ccc(N3CCNCC3)nn2)cc1` [CBK022577F], the “% of control remaining” value was determined as 109.468%.

Regarding `O=c1c2ccccc2nc2n1CCN(Cc1cc(F)ccc1F)CC2` [CBK284818], the “% of control remaining” value came to 126.541%.

`COc1ccc(-c2nnc3[nH]c(=O)n(C)c(=O)c3n2)cc1OC` [CBK263914]: the “% of control remaining” value amounted to 103.853%.

Regarding `CCc1nnc2sc(-c3ccc(C)c(NC(=O)c4ccc(N5CCCCC5)c([N+](=O)[O-])c4)c3)nn12` [CBK268476], the “% of control remaining” value is recorded as 117.318%.

`O=C(NC1CC1)[C@@H]1C=CCN1S(=O)(=O)c1ccccc1Cl` [CBK285479]: the “% of control remaining” value was 140.899%.

Take `COCCn1c(SCc2nc3ccccc3nc2C)nc(C)c1C` [CBK305651]: the “% of control remaining” value is 101.269%.

In the case of `Cc1nc2c(-c3ccccc3)cnn2c(N2CCCC2)c1C` [CBK287799], the “% of control remaining” value was 140.108%.

In the case of `COc1ccc(OCc2nc(-c3cccs3)no2)cc1` [CBK269782], the “% of control remaining” value was 106.58%.

Take `O=C(NCCN1CCC(O)(c2cccc(F)c2)CC1)C1CCCCC1` [CBK283281]: the “% of control remaining” value was determined as 123.307%.

On to `O=C1NC2(CCCN(C(=O)c3cccs3)C2)Oc2ccccc21` (stereo not drawn) [CBK284799], for which the “% of control remaining” value is 142.906%.

Regarding `Cc1cccc(OCC2CCCN(C(=O)CCc3nncn3C)C2)c1` (stereo not drawn) [CBK306640], the “% of control remaining” value amounted to 101.434%.

As to `CN(CCc1cnn(C)c1)C(=O)NCCCN1CCCC1=O` [CBK307008], the “% of control remaining” value is recorded as 151.982%.

As to `Cn1c(OCc2cccnc2)nc2c1c(=O)n(Cc1ccc(Cl)c(Cl)c1)c(=O)n2C` [CBK267498], the “% of control remaining” value amounted to 136.671%.

Turning to `O=S(=O)(Nc1nn(Cc2ccc(C(F)(F)F)cc2)c2ccccc12)c1cccc2nsnc12` [CBK048086], the “% of control remaining” value came to 117.764%.

As to `CC1CCN(C(=O)C[C@@H]2O[C@H](CNS(=O)(=O)c3ccccc3)[C@@H](O)[C@H]2O)CC1` [CBK288927], the “% of control remaining” value stood at 134.529%.

As for `O=C(CC[C@@H]1CNC(=O)[C@@H]2C[C@H](NC(=O)C3CC3)CN12)Nc1ccccc1` [CBK289006], the “% of control remaining” value is given as 99.5583%.

Turning to `Cc1ccn(CCC(=O)NC(C)c2cccnc2)n1` (stereo not drawn) [CBK282197], the “% of control remaining” value is listed as 119.998%.

As for `O=C(Nc1ccccc1)NC(N1CCOCC1)C(Cl)(Cl)Cl` (stereo not drawn) [CBK261293], the “% of control remaining” value turned out to be 102.385%.

On to `C=CCNC(=O)C1CCN(c2nc3ccccc3n2CC)CC1` [CBK283920], for which the “% of control remaining” value stood at 88.6534%.

Consider `CC(=O)NS(=O)(=O)c1ccc(NC(=O)CCSc2ccc(C)cc2)cc1` [CBK296141], for which the “% of control remaining” value is 55.9251%.

On to `COc1ccc(N2CCN(C(=S)c3ccc(OCC(N)=O)cc3)CC2)cc1` [CBK269190], for which the “% of control remaining” value is listed as 108.878%.

With `CC(Cn1nnc2ccccc21)C(=O)O` (stereo not drawn) [CBK264727], the “% of control remaining” value is 97.8675%.

In the case of `O=C(NC(Cc1ccc(O)cc1)C(=O)O)c1ccccc1` (stereo not drawn) [CBK260937], the “% of control remaining” value was 118.048%.

As for `Cn1nccc1NS(=O)(=O)c1ccc(Br)cc1C(F)(F)F` [CBK062082], the “% of control remaining” value stood at 117.375%.

As for `O=C(CCc1ccncc1)N1CCC(c2cc3ncccc3[nH]2)CC1` [CBK284460], the “% of control remaining” value came out at 165.11%.

For the molecule `O=C(O)c1c2c(nc3ccccc13)CCN(Cc1ccccc1)C2` [CBK286805], the “% of control remaining” value is listed as 150.26%.

Consider `COc1cc(NC(=O)c2cc3nc(-c4cccs4)cc(C(F)(F)Cl)n3n2)c(C(C)=O)cc1OC` [CBK268312], for which the “% of control remaining” value is 142.681%.

Turning to `CCSc1nnc2c(n1)OC(C1CC=C(C)CC1)Nc1ccccc1-2` (stereo not drawn) [CBK262367], the “% of control remaining” value came to 100%.

With `O=C(c1ccc2ncccc2c1)N1CCC2(CCN(C(=O)c3cc(F)c(F)cc3F)C2)C1` (stereo not drawn) [CBK131391], the “% of control remaining” value is 138.67%.

On to `CCCn1nnnc1NCc1cccc(Cl)c1` [CBK288130], for which the “% of control remaining” value is reported as 115.111%.

In the case of `Cc1ccc(/N=N/c2c(O)c(C(=O)Nc3ccc4c(c3)c(=O)[nH]c3ccccc34)cc3ccccc23)c(Cl)c1` [CBK262306], the “% of control remaining” value was determined as 117.464%.

For the molecule `Cc1nc2n(CC#N)c3ccccc3n2n1` [CBK062670], the “% of control remaining” value stood at 117.679%.
